Data: paper PMC11234212
These are yes or no findings as the source states them, for the method shown. Binding seen in cells or lysates may run through a third protein. A yes stands for co-enrichment or nearness to the bait. Other partners may have been found.

Sequences of proteins named here, by UniProt entry; tags and fusion partners are left off.
UniProt Q9UKM9: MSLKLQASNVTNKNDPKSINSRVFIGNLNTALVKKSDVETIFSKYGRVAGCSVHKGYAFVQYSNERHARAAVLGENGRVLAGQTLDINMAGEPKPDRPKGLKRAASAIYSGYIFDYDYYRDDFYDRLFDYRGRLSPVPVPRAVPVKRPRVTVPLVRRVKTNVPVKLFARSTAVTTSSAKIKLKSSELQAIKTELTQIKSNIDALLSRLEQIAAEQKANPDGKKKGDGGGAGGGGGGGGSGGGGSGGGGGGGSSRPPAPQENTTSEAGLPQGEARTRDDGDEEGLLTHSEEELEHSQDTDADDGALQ

Target: T1, O-GlcNAc transferase (OGT) (human (endogenous in Hep3B and Huh7)) (UniProt O15294)
T1 sequence: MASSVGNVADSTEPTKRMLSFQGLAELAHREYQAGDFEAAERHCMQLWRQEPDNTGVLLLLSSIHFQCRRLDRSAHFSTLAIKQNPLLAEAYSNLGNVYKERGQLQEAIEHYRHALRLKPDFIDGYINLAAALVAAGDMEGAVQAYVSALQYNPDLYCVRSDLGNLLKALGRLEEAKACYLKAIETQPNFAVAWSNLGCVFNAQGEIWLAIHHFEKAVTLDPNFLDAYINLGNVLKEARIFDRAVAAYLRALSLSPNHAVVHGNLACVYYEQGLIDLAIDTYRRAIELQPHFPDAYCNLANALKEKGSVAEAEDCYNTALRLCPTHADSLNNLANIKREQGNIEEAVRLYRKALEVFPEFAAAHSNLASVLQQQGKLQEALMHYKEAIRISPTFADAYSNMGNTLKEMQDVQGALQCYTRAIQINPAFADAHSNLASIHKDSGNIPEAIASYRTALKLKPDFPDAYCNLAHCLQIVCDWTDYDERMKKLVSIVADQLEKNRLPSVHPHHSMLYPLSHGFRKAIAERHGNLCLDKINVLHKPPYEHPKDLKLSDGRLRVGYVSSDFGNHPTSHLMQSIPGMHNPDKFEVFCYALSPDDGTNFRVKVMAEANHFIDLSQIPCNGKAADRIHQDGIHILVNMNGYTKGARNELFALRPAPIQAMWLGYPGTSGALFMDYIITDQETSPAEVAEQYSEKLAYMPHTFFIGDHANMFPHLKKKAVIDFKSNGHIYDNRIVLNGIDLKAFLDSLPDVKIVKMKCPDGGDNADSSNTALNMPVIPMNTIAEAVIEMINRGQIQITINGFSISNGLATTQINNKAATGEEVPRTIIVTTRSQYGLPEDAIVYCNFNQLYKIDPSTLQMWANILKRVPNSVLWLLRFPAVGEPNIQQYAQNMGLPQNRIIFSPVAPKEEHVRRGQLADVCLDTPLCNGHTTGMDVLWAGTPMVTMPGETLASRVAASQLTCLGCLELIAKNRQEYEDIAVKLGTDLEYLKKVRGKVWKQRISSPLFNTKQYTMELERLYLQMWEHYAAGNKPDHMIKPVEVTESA
Assay: affinity purification with mass spectrometry; IP-MS of proteins bound with OGT in Hep3B and BEL7402 cells; overlap of the two lists

With RALY (from UniProt Q9UKM9 1-306) the binding was “binds”.
